Measurements reported in publication PMC2931690.
Results are given in words; binding and its absence hold for the method and conditions named. In cells and extracts the contact can be indirect. Some results given as binding are weak or reduced against the parent protein; the word gives no strength.

Protein sequences, listed by entry. Tags and fused reporters are not part of them.
UniProt Q3UND0: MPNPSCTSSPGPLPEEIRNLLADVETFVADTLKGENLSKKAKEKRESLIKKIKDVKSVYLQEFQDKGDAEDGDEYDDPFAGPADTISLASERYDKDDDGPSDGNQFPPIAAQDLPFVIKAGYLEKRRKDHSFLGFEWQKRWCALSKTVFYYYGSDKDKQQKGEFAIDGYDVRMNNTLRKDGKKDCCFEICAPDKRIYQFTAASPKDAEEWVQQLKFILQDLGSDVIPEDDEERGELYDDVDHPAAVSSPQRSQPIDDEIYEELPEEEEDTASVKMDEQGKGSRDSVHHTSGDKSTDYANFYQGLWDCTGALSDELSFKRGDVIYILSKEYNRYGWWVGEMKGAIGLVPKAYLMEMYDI
UniProt P70218: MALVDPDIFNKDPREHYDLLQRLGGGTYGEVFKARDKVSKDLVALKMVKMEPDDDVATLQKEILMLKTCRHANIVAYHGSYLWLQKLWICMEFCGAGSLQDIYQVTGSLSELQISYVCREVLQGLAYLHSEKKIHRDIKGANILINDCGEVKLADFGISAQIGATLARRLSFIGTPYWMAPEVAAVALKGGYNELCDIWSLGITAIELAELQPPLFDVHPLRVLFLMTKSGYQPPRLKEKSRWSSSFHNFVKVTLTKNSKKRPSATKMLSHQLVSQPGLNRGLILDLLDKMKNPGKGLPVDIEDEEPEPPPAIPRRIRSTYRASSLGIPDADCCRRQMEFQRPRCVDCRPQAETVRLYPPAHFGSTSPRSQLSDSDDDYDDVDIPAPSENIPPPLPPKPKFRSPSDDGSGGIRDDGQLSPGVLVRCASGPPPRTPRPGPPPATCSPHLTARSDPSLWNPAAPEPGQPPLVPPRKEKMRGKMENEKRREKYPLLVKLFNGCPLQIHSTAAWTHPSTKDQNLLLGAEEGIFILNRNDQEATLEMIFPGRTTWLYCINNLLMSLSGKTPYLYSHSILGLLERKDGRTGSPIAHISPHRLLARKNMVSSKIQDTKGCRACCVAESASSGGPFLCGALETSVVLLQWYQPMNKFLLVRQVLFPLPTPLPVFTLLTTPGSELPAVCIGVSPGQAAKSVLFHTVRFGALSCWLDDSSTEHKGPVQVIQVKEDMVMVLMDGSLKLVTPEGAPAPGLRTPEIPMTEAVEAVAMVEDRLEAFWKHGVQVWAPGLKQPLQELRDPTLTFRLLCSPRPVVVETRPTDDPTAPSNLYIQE

Target: SKAP55 homologue (SKAP-HOM) (mouse (endogenous in Wehi 231)) (UniProt Q3UND0)
Assay: co-IP; SKAP-HOM immunoprecipitated from lysates of unstimulated Wehi 231 co/kd cells (1% Triton X-100, 10 mM Tris pH 7.5, 150 mM NaCl, 5 mM EDTA, 10 mM NaF), 3 h at 4°C; Western blots for SKAP-HOM, HPK1 and RIAM

binding: binds
Substance: Hematopoietic progenitor kinase 1 (HPK1) (from UniProt P70218 1-827)
